This is an account of results in PubChem BioAssay AID2685 (National Center for Advancing Translational Sciences (NCATS), 2010).

This assay in a line: qHTS Assay for Lipid Storage Modulators in Drosophila S3 Cells.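 For cell number change: cells counted by Cell Tracker Red CMTPX staining in the red channel.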 To be noted: BODIPY lipid droplet fluorescence, 18-24 h; for cell number change: measured here: cell count max response, cells fed with added oleic acid. The procedure, abridged: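 Drosophila S3 cells loaded with oleic acid (400 uM, as added) and compounds at several concentrations; lipid droplets imaged by 488-nm laser-scanning cytometry, 500–530 nm intensity and object ratio to cell channel. Percent activity normalized to 20 uM Triacsin C.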
On the technique in general: Quantitative high-throughput screening tests each substance at several concentrations.

The mark [1] stands for this setting: measured here: cell number channel AC50, cells fed with added oleic acid.
Where [2] appears, read: measured here: lipid fluorescence (Fed channel) AC50, cells fed with added oleic acid.

The list shows a part of the results. Further columns of the screen follow, without active or inactive calls. Most of these compounds were active or inconclusive in the main read-out, so they are no random draw. Words in brackets tell the shape of the fitted curve; partial curves, single points and poor fits give uncertain potencies.

The term AC50 denotes the concentration giving half of the maximal activity seen.

Turning to `CCCn1c(SCC(=O)c2cc(C)n(C3CC3)c2C)n[nH]c1=O`, the cell number change is -45.6%. The AC50 under setting [1] was 29.1 µM [falling, single point]. Also, the AC50 under setting [2] is 1.84 µM [falling, partial curve].
As for `Cc1ccc[n+](C2C(c3ccc([N+](=O)[O-])cc3)C(C#N)=C([S-])NC2(O)C2CC2)c1` (stereo unspecified), the AC50 runs as follows: under setting [1], 6.51 µM [falling, single point]; under setting [2], 1.3 µM [falling, partial curve].
In the case of `O=S(=O)(NCC1CCCO1)c1ccc(NS(=O)(=O)c2ccc(F)cc2)cc1` (stereo unspecified), the cell number change turned out to be 20.4%. Further, under setting [2], the AC50 is 29.1 µM [rising, single point].
For `Cc1ccccc1CNC(=O)c1ccc2ccccc2n1`, the cell number change was determined as 15.8%. Also, the AC50 under setting [2] is 29.1 µM [rising, single point].
`O=C(OCC(=O)N1CCN(C(=O)c2ccco2)CC1)c1ccc(Cl)c(Cl)c1`: the cell number change amounted to 3.99%.
For the compound `Clc1ccc(C2=NN=C3COc4ccccc4N3C2)cc1`, the cell number change is 33.5%. The AC50 under setting [1] was 29.1 µM [rising, single point]. For the same compound, the AC50 under setting [2] is 29.1 µM [rising, single point].
Turning to `CC(=O)O[C@H]1CC[C@@]2(C)[C@@H](CC[C@H]3[C@@H]4CC[C@H](C(C)O)[C@@]4(C)CC(=O)[C@@H]32)C1` (stereo partly specified), the cell number change is -17.4%. For the same compound, the AC50 under setting [2] is 0.00517 µM [falling, full curve, poor fit].
On to `CC(=O)c1ccc2c(c1)OCCOCCOCCOCCOCCO2`, for which the cell number change is -31%. Besides, the AC50 under setting [1] was 23.1 µM [falling, single point]. In addition, the AC50 under setting [2] was 29.1 µM [falling, single point].
Consider `Cc1ccc(NC(=O)CCn2cccc2)cc1Cl`, for which the cell number change was 0.711%. In addition, the AC50 under setting [2] is 3.26 µM [falling, partial curve].
`O=C(NCCN1CCN(c2ccccc2)CC1)Nc1ccccc1Cl`: the cell number change was -2.63%. Besides, the AC50 under setting [2] is 2.31 µM [rising, partial curve, poor fit].
`O=C(/C=C/c1ccccc1[N+](=O)[O-])NCc1ccccc1Cl`: the cell number change was found to be 28.9%.
Turning to `COc1ccccc1N1CCN(c2ccc(-c3ccccc3)nn2)CC1`, the cell number change was -25%.
Same read-out and setting: the result for `S=C(NCCc1ccc(Cl)cc1)NCc1ccco1` reads 28%; that for `CC(C)OC(=O)/C(=C\c1cccc2ccccc12)NC(=O)c1ccccc1`, -13.3%.
In the case of `COc1ccc(C2=NCC(CSc3nnnn3C)S2)cc1` (stereo unspecified), the cell number change was -17.8%. Moreover, the AC50 under setting [2] is 29.1 µM [rising, single point].
Take `CC(C)(C)c1ccc(/C=C2/SC(N3CCCC3)=NC2=O)cc1`: the cell number change is -43.4%. In addition, the AC50 under setting [1] is 16.4 µM [falling, partial curve, poor fit]. Moreover, under setting [2], the AC50 was 18.4 µM [falling, single point].
`Cc1ccc(Cn2c(=N)n(CC(O)c3ccco3)c3ccccc32)cc1` (stereo unspecified): the AC50 under setting [2] is 29.1 µM [falling, partial curve].
With `Cc1ccc(N2CCN(CC(O)COC3CCCCC3)CC2)cc1` (stereo unspecified), the cell number change is -5.78%. The AC50 under setting [1] was 4.11 µM [falling, single point].
Turning to `COc1ccc(-n2c(SCC(=O)Nc3sc4c(c3C#N)CCCC4)nnc2-c2ccc(O)cc2)cc1`, the cell number change worked out at 9.22%. Further, the AC50 under setting [1] is 0.0651 µM [rising, full curve, poor fit].
Consider `O=C(c1ccccc1NS(=O)(=O)c1ccc(Br)cc1)N1CCOCC1`, for which the cell number change was -25.2%.
With `CCC1(c2ccc(Cl)cc2)NC(=O)N(Cc2ccc(C(=O)OC)cc2)C1=O` (stereo unspecified), the cell number change was -22%. The AC50 under setting [2] is 29.1 µM [falling, single point].
As to `O=[N+]([O-])c1cccc(CN2CCCCCC2)c1`, the cell number change is -16.9%. In addition, under setting [2], the AC50 was 29.1 µM [falling, single point].
In the case of `COc1cccc(-n2c(SCC(=O)NCCc3ccccc3)nnc2-c2ccoc2C)c1`, the AC50 under setting [1] was 6.51 µM [rising, single point] and the AC50 under setting [2] was 2.06 µM [rising, full curve].
`COC(=O)c1nc(-c2ccccc2)oc1N1CCOCC1`: the cell number change turned out to be 30.5%. The AC50 under setting [1] is 6.51 µM [rising, full curve, poor fit]. Further, the AC50 under setting [2] was 7.31 µM [rising, partial curve].
`CCC(=O)N1CCN(c2ccc(NC(=O)c3ccco3)cc2Cl)CC1`: the cell number change is -20.4%. The AC50 under setting [2] is 0.58 µM [falling, single point].
With `O=C(Oc1ccc(Cl)c2ccccc12)N1CCCCC1`, the cell number change was determined as 74%. Also, the AC50 under setting [1] is 29.1 µM [rising, single point]. In addition, under setting [2], the AC50 is 29.1 µM [rising, single point].
As to `Cc1cc(NC(=O)CSc2nc3ccccc3n2CCC#N)no1`, the cell number change was found to be 56%. Besides, the AC50 under setting [1] was 0.00461 µM [rising, full curve, poor fit].
Regarding `O=C(Nc1ccc(F)cc1F)Nc1csc2ccccc12`, the cell number change is -28.8%. Besides, the AC50 under setting [2] is 32.6 µM [falling, partial curve, poor fit].
With `Cc1ccc2nc(CSc3nc(C)ccc3C#N)[nH]c2c1`, the AC50 was 0.206 µM [rising, full curve] under setting [1] and 0.206 µM [rising, full curve, poor fit] under setting [2].
As to `O=C(CNS(=O)(=O)c1ccccc1)NCc1cccnc1`, the cell number change was 12.2%. The AC50 under setting [2] is 0.00651 µM [rising, full curve, poor fit].
Consider `Cc1cccc(C)c1NC(=O)CCCN1C(=O)C(c2ccccc2)Oc2cccnc21` (stereo unspecified), for which the cell number change was -23.7%. Also, the AC50 under setting [2] was 29.1 µM [falling, single point].
In the case of `Cc1ccc(S(=O)(=O)N2CCCCC2)cc1NC(=O)c1cccs1`, the cell number change is -2.55%. Further, the AC50 under setting [2] was 0.82 µM [rising, single point].
Turning to `O=C(CCc1ccccc1)N=C1SC2CS(=O)(=O)CC2N1c1ccc(F)cc1` (stereo unspecified), the cell number change came to 14.4%. The AC50 under setting [1] is 0.00461 µM [rising, full curve, poor fit].
Consider `O=C(Nc1cc(F)ccc1F)C1CCCO1` (stereo unspecified), for which the cell number change is -110%. Also, the AC50 under setting [1] is 29.1 µM [falling, partial curve]. In addition, the AC50 under setting [2] was 29.1 µM [falling, partial curve].
Consider `CCOc1ccc(NS(=O)(=O)c2cc(C(=O)N3CCN(C(C)=O)CC3)ccc2Cl)cc1`, for which the cell number change was -34.7%. Under setting [1], the AC50 is 2.59 µM [falling, partial curve]. Moreover, the AC50 under setting [2] was 1.3 µM [falling, full curve, poor fit].
As for `COc1ccc(-c2nnc(SCC(=O)N3CCCCC3)o2)c(OC)c1`, the AC50 under setting [2] is 2.06 µM [rising, partial curve].
On to `CCc1ccc([C@@H]2CC=C(C(=O)O)[C@H](c3cccc(Cl)c3)N2S(=O)(=O)c2ccc(C)cc2)cc1`, for which the cell number change amounted to 7.92%. Also, under setting [1], the AC50 is 0.731 µM [falling, single point]. For the same compound, the AC50 under setting [2] is 25.9 µM [falling, single point].
Take `CCC(=O)c1ccc(OCC(=O)Nc2cccc(S(=O)(=O)N(C)c3ccccc3)c2)cc1`: the cell number change came out at 12.5%.
With `O=C(COc1ccc([N+](=O)[O-])cc1)Nc1ccc(N2CCCC2)cc1`, the cell number change was -9.33%. Also, the AC50 under setting [2] was 14.6 µM [rising, single point].
For `COc1ccccc1C(=O)O[C@H]1[C@H](Cc2ccccc2)NS(=O)(=O)[C@H]2C[C@@H]3C=C[C@]12O3`, the cell number change is 4.4%. Also, the AC50 under setting [2] was 1.16 µM [rising, single point].
As to `CSc1ncccc1C(=O)OCC(=O)Nc1ccc2c(c1)CCC2`, the cell number change worked out at 13.7%. Also, under setting [2], the AC50 was 16.4 µM [falling, single point].
For the compound `CCC(C)(C)NC(=O)COc1ccc(C(=O)c2ccccc2)cc1`, the cell number change was 0.947%. Also, under setting [2], the AC50 is 0.326 µM [rising, full curve, poor fit].
`CS(=O)(=O)Cc1ccc(C(=O)NC2CCN(Cc3ccccc3)C2)cc1` (stereo unspecified): the cell number change was determined as 7.14%. For the same compound, the AC50 under setting [2] is 29.1 µM [rising, single point].
Take `O=C(O)CCCN1C(=O)NC2NC(=O)NC21` (stereo unspecified): the cell number change was 4.11%. Moreover, under setting [2], the AC50 is 0.82 µM [falling, full curve].
As for `CCC(=O)NNC(=S)NC(=O)c1ccc(C)cc1`, the cell number change is -2.63%. Further, the AC50 under setting [2] was 1.03 µM [falling, partial curve].
Consider `CN1CCN(Cc2nc3ccccc3c(=O)n2CC#N)CC1`, for which the cell number change was determined as 19.7%. Further, under setting [2], the AC50 was 0.651 µM [falling, partial curve, poor fit].
For the compound `NC(=O)CSc1nnc(NC(=O)c2ccc(S(=O)(=O)N3CCCCC3)cc2)s1`, the cell number change is -9.5%.
Turning to `CC(=O)c1sc(NCc2ccc(C)cc2)nc1C`, the cell number change is -16.2%. Moreover, the AC50 under setting [2] was 6.51 µM [falling, single point].
On to `O=C(CSc1nc2ccccc2n1CC(=O)N1CCCC1)Nc1ccc2c(c1)OCO2`, for which the cell number change stood at 18.4%. Further, the AC50 under setting [2] is 0.184 µM [rising, full curve].
With `CC(C)CCNC(=O)C(c1ccco1)N(Cc1cccs1)C(=O)Cn1nnc2ccccc21` (stereo unspecified), the cell number change came to 1.75%. Also, the AC50 under setting [2] was 14.6 µM [rising, partial curve].
With `Nn1c(Cc2cccc3ccccc23)nnc1SCCOc1ccc(Br)cc1`, the cell number change was -33.3%. Further, under setting [1], the AC50 is 5.8 µM [rising, partial curve].
Turning to `Cc1nc2cc(F)ccc2n1C1CCN(C(=O)c2c(F)cccc2F)CC1`, the AC50 under setting [2] is 29.1 µM [falling, single point].
On to `COc1ccc(CN2CC(=O)N(c3cc(Cl)ccc3OC)C2=S)cc1OC`, for which the cell number change was -27.3%.
Take `COc1cc(OC)c(OC)cc1C#N`: the cell number change was determined as 3.08%. Moreover, the AC50 under setting [1] was 0.00461 µM [falling, full curve, poor fit].
On to `Cc1cc(S(=O)(=O)N2CCC(N3CCCCC3)CC2)ccc1-n1cnnn1`, for which the cell number change stood at 22%.
On to `Cc1cc(C)n2nc(N)c(N=Nc3cccc(Cl)c3)c2n1`, for which the cell number change was -0.729%. For the same compound, the AC50 under setting [1] is 0.731 µM [rising, full curve, poor fit].
Turning to `O=C(c1cc(S(=O)(=O)N2CCN(c3ccccc3)CC2)ccc1Cl)N1CCCC(C(F)(F)F)C1` (stereo unspecified), the cell number change was found to be 3.59%. Under setting [2], the AC50 is 29.1 µM [falling, single point].
Consider `Cc1ccc(NC(=O)c2cc3ccccc3cc2O)cc1`, for which the cell number change is -27%. Besides, the AC50 under setting [2] is 29.1 µM [falling, single point].
Turning to `CC12COC3(C(=O)Nc4ccc(Cl)cn4)CC1CCC32C` (stereo unspecified), the cell number change came out at 73.2%. Besides, under setting [1], the AC50 was 16.4 µM [rising, partial curve]. In addition, the AC50 under setting [2] was 6.51 µM [rising, single point].
For the compound `Cc1ccccc1OCCC(=O)OCC(=O)Nc1cc(S(=O)(=O)N2CCOCC2)ccc1Cl`, the cell number change was -4.33%.
